“Also recorded” adds a separate entry of the source. For at least one compound, name, drawing or mass did not settle the structure. Some entries share one result that the patent states for a list of compounds.
Experiments:
Format in all cases: cell-based
[1] = test system: Akt (ser473); test: Akt (ser473) phosphorylation, Western blot, LPS-stimulated monocytes; conditions: human monocytes; 20 μM LY294002 pre-incubation; 1 μg/ml E. coli LPS
[2] = test system: GSK-3β (ser9); test: GSK-3β (ser9) phosphorylation, Western blot, LPS-stimulated monocytes; conditions: human monocytes; inhibitor pre-incubation 60 to 90 min; 1 μg/ml E. coli LPS
[3] = test system: human monocytes; test: Cytokine production by E. coli LPS-stimulated monocytes (ELISA); conditions: inhibitor pre-incubation 1 h, 1 μg/ml E. coli LPS 20 h
Protocol: FIG. 2 The ability of the PI3K pathway to differentially modulate the levels of pro- and anti-inflammatory cytokines is mediated by inhibition of GSK-3. Human monocytes were pre-incubated with medium only, 10 μM SB216763, 10 mM LiCl, 200 nM Azakenpaullone, BIO (50 nM), 1 μM Akt-i, or 20 μM LY294002 for 1 h and then stimulated with 1 μg/ml of E. coli LPS for 20 h. Cell-free supernatants were collected and assessed for (A, C) IL-10, (B, D) IL-12 p40, (E) TNF-α, or (F) IL-6 production by ELISA. * and *** indicates significant differences (P<0.05 and P<0.001, respectively) compared to E. coli LPS stimulated cultures. Results represent the mean±SD of 5 separate experiments.
(A) Monocytes were pre-treated for 96 h with medium, siRNA targeting GSK-3β, or control siRNA and assayed by Western blot for the levels of total GSK-3β and total p38. (B, C) Monocytes were pre-treated with medium only, siRNA control, or siRNA targeting GSK-3β for 96 h, stimulated with E. coli LPS for 20 h, and cell-free supernatants assayed by ELISA for the levels of (B) IL-10 and (C) IL-12 p40. * indicates significant differences (P<0.05) compared to LPS stimulated cultures. Results represent the mean±SD of 3 separate experiments.
Human monocytes were pre-treated with medium only or 10 μM of SB216763 and then stimulated for the indicated time points with 1 μg/ml of E. coli LPS. The ability of E. coli LPS in the presence or absence of SB216763 to mediate the degradation and re-synthesis of (A) IκB-α and the phosphorylation of (B) NF-κB p65 (ser 276 or ser 536) were assessed by Western blot. […] The interaction of CBP with (F) NF-κB p65 and (G) CREB after treatment of cells with SB216763 (10 μM) were assessed by immunoprecipitation of CBP and probed for (F) NF-κB or (G) CREB levels by immunoblot. […]
Human or mouse IL-1β, IL-10, IL-12 p40, and IFN-γ levels in the plasma of mice or cell-culture supernatants were determined by using enzyme-linked immunosorbent assay (ELISA) kits from R&D systems or Ebioscience according to manufacturer's instructions. […]

Structure (SMILES) | ability of E. coli LPS to induce phosphorylation of Akt (ser473) [1] | ability of E. coli LPS to phosphorylate GSK-3β (ser9) [2] | IL-10 levels compared to E. coli LPS-treated monocytes (in words) [3] | increase in IL-12 p40 levels ([3]; vs LPS alone) | reduction in IL-12 p40 levels ([3]; vs LPS alone) [%]
O=c1cc(N2CCOCC2)oc2c(-c3ccccc3)cccc12 [LY294002] | abolished | abolished; also recorded: inhibited | severe reduction | more than 50% | 
Cn1cc(C2=C(c3ccc(Cl)cc3Cl)C(=O)NC2=O)c2ccccc21 [SB216763] |  |  |  |  | > 80

Source: patent US8048454B2, “Methods and compositions related to regulation of cytokine production by glycogen synthase kinase 3 (GSK-3)” (priority 2004, dated 2011)
